Measured values from patent US20240262919A1 (SHANGHAITECH UNIVERSITY, published 2024).
Numbering of substitutions follows the chain as printed. These are yes or no findings as the source states them, for the method shown. Some binding calls cover weakened binding; strength is not graded here.

T1: antigen of the affinity maturation selections of antibody 3131 (IL-18Rβ, construct not named) (UniProt O95256)
T1 sequence (looked up): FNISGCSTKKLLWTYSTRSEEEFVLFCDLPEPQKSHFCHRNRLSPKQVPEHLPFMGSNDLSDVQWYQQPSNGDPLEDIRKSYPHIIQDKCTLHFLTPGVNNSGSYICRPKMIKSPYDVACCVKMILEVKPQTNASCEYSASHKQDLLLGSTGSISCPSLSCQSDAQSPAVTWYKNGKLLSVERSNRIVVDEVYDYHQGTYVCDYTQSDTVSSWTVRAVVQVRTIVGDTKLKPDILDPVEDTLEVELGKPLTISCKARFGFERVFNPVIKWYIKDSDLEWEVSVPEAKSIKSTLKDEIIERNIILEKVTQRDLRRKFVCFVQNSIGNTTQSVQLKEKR

B1: 3131 AM2-36 (Fab, V domains shown)
VH: EVQLVESGGGLVQPGGSLRLSCAASGFNLYYSSMHWVRQAPGKGLEWVASIYSSSGSTSYADSVKGRFTISADTSKNTAYLQMNSLRAEDTAVYYCARSSFSHGYGWYGLDYWGQGTLVTVSS
VL: DIQMTQSPSSLSASVGDRVTITCRASQSVSSAVAWYQQKPGKAPKLLIYSASSLYSGVPSRFSGSRSGTDFTLTISSLQPEDFATYYCQQYGYHYAGLITFGQGTKVEIK
notes: Fab
B2: 3131 AM2-1 (Fab, V domains shown)
VH: B1 VH with S55Y, S57Y, S59Y
VL: B1 VL with Y95H
notes: Fab
B3: 3131 AM2-2 (Fab, V domains shown)
VH: B1 VH with S55H, S57R, S59G
VL: B1 VL with L54R, Y55D
notes: Fab
B4: 3131 AM2-3 (Fab, V domains shown)
VH: B1 VH with S57Y
VL: B1 VL
notes: Fab
B5: 3131 AM2-4 (Fab, V domains shown)
VH: B1 VH with S59C
VL: B1 VL
notes: Fab
B6: 3131 AM2-5 (Fab, V domains shown)
VH: B1 VH with S57D, S59H
VL: B1 VL
notes: Fab
B7: 3131 AM2-6 (Fab, V domains shown)
VH: B1 VH with S55H, S57G, S59N
VL: B1 VL
notes: Fab
B8: 3131 AM2-7 (Fab, V domains shown)
VH: B1 VH with S55H, S57G, S59Y
VL: B1 VL with Y95D
notes: Fab
B9: 3131 AM2-9 (Fab, V domains shown)
VH: B1 VH with S55Y, S57Y, S59Y
VL: B1 VL with Y95N
notes: Fab
B10: 3131 AM2-13 (Fab, V domains shown)
VH: B1 VH with S55Y, S57Y, S59Y
VL: B1 VL with Y95D
notes: Fab
B11: 3131 AM2-14 (Fab, V domains shown)
VH: B1 VH with S55Y, S57Y, S59Y
VL: B1 VL with Y95G
notes: Fab
B12: 3131 AM2-15 (Fab, V domains shown)
VH: B1 VH with S57D, S59G
VL: B1 VL
notes: Fab
B13: 3131 AM2-17 (Fab, V domains shown)
VH: B1 VH with S55H, S57N, S59D
VL: B1 VL
notes: Fab
B14: 3131 AM2-18 (Fab, V domains shown)
VH: B1 VH with S55G
VL: B1 VL
notes: Fab
B15: 3131 AM2-21 (Fab, V domains shown)
VH: B1 VH with S55Y, S57Y, S59Y
VL: B1 VL with A51G, L54G, Y55R
notes: Fab
B16: 3131 AM2-24 (Fab, V domains shown)
VH: B1 VH with S55Y, S57Y, S59Y
VL: B1 VL with A51D
notes: Fab
B17: 3131 AM2-25 (Fab, V domains shown)
VH: B1 VH with S55Y, S57Y, S59Y
VL: B1 VL with L54R, Y55D
notes: Fab
B18: 3131 AM2-26 (Fab, V domains shown)
VH: B1 VH with S55Y, S57Y, S59Y
VL: B1 VL with A51E, Y55S
notes: Fab
B19: 3131 AM2-28 (Fab, V domains shown)
VH: B1 VH with S55Y, S57Y, S59Y
VL: B1 VL with A51R, L54D, Y55S
notes: Fab
B20: 3131 AM2-30 (Fab, V domains shown)
VH: B1 VH with S55Y, S57Y, S59Y
VL: B1 VL with L54E, Y55R
notes: Fab
B21: 3131 AM2-31 (Fab, V domains shown)
VH: B1 VH with S55Y, S57Y, S59Y
VL: B1 VL with A51E
notes: Fab
B22: 3131 AM2-32 (Fab, V domains shown)
VH: B1 VH with S55Y, S57Y, S59Y
VL: B1 VL with A51S, L54V
notes: Fab
B23: 3131 AM2-33 (Fab, V domains shown)
VH: B1 VH with S55Y, S57H
VL: B1 VL
notes: Fab
B24: 3131 AM2-35 (Fab, V domains shown)
VH: B1 VH with S55Y, S57Y, S59Y
VL: B1 VL with Y95S
notes: Fab
B25: 3131 AM2-37 (Fab, V domains shown)
VH: B1 VH
VL: B1 VL with Y95S
notes: Fab
B26: 3131 AM2-S-G (Fab, V domains shown)
VH: B1 VH with S55Y, S57Y, S59Y
VL: B1 VL with S50G
notes: Fab
B27: 3131 AM2-S-H (Fab, V domains shown)
VH: B1 VH with S55Y, S57Y, S59Y
VL: B1 VL with S50H
notes: Fab
B28: 3131 AM2-S-T (Fab, V domains shown)
VH: B1 VH with S55Y, S57Y, S59Y
VL: B1 VL with S50T
notes: Fab
B29: 3131 AM2-S-Y (Fab, V domains shown)
VH: B1 VH with S55Y, S57Y, S59Y
VL: B1 VL with S50Y
notes: Fab
B30: 3131 AM2-8 (Fab, V domains shown)
VH: B1 VH with S55N, S57R, S59Y
VL: B1 VL
B31: 3131 AM2-O-01 (Fab, V domains shown)
VH: B1 VH with N28T, S55G
VL: B1 VL with K45R
B32: 3131 AM2-O-02 (Fab, V domains shown)
VH: B1 VH with N28D, S55G
VL: B1 VL with K45R
B33: 3131 AM2-O-03 (Fab, V domains shown)
VH: B1 VH with N28S, S55G
VL: B1 VL with K45R
B34: 3131 AM2-O-04 (Fab, V domains shown)
VH: B1 VH with N28T, S57D, S59H
VL: B1 VL with K45R

Target: T1, antigen of the affinity maturation selections of antibody 3131 (IL-18Rβ, construct not named)
Assay: affinity-based solution-phase phage display selection, decreasing antigen concentration

binding, binds:
B1
B2
B3
B4
B5
B6
B7
B8
B9
B10
B11
B12
B13
B14
B15
B16
B17
B18
B19
B20
B21
B22
B23
B24
B25
B26
B27
B28
B29
B30
B31
B32
B33
B34
